Assay results taken from article PMC7487766.

By UniProt entry, the sequences of proteins in these tests, tags left out. Where a name states a change or a piece, a line headed by the entry shows the natural chain unless it says otherwise. Residues count along the entry.
UniProt A0A509AEX0: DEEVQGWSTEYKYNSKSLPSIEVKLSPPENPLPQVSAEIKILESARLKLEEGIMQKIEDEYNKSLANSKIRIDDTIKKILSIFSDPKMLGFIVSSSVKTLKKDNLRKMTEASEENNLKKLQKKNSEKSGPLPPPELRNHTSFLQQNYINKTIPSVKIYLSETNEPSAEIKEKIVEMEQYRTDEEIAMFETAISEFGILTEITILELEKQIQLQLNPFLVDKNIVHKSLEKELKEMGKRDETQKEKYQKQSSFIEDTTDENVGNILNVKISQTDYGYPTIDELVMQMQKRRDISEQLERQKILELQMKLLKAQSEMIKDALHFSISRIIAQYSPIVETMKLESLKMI
UniProt A0A509AJL0: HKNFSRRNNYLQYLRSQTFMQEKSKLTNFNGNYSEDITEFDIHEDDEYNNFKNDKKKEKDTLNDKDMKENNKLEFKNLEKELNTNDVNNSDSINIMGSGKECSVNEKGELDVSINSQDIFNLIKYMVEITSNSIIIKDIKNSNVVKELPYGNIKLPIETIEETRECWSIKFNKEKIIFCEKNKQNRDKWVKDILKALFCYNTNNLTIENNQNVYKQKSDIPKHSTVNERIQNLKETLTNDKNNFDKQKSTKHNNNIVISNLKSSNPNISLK
UniProt A0A509AJG0, residues 22-651: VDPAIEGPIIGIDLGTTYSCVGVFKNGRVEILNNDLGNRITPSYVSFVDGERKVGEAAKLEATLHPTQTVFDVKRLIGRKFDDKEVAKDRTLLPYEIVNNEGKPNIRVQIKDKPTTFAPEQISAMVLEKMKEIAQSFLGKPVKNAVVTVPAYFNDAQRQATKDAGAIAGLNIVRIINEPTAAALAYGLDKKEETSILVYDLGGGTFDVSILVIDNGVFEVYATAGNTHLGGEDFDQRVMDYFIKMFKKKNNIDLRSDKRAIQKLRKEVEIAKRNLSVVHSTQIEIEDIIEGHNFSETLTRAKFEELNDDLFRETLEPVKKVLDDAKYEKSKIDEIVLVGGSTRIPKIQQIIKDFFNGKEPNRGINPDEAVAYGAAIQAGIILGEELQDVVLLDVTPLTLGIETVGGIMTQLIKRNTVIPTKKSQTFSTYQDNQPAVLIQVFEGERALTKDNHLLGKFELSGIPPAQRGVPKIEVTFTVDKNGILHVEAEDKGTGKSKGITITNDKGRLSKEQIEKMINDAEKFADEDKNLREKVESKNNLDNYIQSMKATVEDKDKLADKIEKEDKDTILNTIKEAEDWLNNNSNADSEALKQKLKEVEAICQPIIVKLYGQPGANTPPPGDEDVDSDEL
UniProt A0A509APN5: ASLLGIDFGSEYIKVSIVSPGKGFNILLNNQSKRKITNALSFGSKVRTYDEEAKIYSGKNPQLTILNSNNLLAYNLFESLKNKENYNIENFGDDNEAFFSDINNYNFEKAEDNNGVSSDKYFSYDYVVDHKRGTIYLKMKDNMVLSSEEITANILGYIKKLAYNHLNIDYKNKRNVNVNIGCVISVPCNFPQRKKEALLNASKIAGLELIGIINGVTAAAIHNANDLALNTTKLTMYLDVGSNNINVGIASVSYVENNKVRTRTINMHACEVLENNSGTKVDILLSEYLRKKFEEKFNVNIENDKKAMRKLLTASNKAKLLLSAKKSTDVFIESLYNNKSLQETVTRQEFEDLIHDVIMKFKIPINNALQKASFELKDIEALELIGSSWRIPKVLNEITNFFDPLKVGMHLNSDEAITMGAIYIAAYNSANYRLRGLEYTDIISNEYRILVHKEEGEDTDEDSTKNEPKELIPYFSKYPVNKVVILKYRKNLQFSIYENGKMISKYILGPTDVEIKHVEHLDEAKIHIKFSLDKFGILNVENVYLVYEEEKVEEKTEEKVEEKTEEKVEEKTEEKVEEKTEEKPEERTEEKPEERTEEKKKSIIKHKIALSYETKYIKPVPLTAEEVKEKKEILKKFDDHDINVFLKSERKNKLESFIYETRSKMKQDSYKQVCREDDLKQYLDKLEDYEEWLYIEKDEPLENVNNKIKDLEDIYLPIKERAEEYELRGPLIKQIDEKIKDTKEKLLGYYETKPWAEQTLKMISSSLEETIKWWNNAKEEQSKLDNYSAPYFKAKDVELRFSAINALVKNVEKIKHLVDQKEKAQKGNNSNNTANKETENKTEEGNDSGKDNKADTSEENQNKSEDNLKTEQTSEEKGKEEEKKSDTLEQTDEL
UniProt A0A509AM83: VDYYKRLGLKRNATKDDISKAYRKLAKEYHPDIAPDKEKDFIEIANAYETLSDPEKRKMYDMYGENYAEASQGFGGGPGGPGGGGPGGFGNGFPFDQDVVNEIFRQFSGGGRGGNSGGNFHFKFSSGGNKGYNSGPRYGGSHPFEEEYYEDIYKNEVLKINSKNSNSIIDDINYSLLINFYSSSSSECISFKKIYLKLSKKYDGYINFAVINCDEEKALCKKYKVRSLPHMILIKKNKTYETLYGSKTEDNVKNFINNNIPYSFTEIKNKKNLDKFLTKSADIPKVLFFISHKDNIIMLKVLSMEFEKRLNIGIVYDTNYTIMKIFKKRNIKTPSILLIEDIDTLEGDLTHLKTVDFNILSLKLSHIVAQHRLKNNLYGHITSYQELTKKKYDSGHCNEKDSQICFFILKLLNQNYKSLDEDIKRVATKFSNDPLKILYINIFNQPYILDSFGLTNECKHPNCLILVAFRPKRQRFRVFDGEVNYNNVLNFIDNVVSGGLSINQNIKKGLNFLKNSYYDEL
UniProt A0A509ALX4: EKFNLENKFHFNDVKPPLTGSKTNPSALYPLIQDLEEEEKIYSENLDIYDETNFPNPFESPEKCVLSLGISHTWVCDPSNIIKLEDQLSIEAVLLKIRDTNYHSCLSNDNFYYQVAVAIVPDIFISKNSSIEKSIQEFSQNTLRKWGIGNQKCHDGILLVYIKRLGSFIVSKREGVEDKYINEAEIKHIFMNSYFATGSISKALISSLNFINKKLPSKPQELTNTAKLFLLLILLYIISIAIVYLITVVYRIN
UniProt A0A509AML0: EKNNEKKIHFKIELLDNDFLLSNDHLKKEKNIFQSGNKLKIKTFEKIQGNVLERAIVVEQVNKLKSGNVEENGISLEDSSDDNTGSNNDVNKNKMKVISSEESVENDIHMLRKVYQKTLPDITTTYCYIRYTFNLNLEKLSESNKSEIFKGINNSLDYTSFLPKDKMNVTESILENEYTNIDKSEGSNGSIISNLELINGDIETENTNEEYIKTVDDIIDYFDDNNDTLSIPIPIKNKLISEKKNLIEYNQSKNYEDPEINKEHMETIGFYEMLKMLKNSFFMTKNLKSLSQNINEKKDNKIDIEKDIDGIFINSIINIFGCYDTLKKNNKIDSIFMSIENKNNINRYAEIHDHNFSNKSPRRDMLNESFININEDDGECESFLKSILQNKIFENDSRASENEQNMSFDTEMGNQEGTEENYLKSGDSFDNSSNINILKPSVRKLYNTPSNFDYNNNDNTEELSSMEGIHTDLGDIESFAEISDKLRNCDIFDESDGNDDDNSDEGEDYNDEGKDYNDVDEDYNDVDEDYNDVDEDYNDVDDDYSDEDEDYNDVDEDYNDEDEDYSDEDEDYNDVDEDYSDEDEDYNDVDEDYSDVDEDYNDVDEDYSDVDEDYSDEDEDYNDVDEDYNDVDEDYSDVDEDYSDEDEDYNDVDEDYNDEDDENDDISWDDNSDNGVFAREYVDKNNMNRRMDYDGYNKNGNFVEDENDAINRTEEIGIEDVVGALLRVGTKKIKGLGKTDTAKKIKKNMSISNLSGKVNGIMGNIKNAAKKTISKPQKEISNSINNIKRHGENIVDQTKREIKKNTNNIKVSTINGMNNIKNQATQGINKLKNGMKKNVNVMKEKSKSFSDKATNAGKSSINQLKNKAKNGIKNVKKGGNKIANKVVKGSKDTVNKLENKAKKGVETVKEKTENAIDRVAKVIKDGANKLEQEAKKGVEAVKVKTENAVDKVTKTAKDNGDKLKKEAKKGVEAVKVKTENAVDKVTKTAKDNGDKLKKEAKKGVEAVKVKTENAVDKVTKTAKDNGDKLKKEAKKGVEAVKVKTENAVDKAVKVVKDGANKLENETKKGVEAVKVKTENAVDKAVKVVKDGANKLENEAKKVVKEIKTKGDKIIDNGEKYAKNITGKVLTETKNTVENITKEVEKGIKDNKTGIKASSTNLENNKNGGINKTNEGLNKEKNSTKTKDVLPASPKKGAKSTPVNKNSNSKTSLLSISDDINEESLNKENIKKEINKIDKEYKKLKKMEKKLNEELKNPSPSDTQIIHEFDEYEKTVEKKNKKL
UniProt A0A509ASW0: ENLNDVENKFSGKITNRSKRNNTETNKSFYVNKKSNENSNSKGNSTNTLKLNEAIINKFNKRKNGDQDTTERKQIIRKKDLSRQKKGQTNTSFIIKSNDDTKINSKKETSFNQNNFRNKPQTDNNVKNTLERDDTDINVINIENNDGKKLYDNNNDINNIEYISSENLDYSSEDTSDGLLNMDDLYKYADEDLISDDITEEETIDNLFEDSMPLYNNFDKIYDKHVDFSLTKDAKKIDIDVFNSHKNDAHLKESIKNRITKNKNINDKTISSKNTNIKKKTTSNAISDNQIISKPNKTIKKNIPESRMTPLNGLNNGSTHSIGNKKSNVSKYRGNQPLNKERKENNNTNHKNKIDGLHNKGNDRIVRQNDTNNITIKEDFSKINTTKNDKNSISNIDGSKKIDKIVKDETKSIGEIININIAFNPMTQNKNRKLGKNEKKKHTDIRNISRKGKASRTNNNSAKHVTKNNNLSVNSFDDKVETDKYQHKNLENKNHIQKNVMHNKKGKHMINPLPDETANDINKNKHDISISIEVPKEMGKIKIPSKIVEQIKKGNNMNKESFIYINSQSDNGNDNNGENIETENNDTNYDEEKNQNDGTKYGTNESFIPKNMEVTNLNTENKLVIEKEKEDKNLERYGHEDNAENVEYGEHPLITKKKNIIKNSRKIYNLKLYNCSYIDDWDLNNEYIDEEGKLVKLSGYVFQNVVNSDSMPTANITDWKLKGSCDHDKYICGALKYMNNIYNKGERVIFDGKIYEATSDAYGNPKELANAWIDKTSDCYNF
UniProt A0A509ANV7: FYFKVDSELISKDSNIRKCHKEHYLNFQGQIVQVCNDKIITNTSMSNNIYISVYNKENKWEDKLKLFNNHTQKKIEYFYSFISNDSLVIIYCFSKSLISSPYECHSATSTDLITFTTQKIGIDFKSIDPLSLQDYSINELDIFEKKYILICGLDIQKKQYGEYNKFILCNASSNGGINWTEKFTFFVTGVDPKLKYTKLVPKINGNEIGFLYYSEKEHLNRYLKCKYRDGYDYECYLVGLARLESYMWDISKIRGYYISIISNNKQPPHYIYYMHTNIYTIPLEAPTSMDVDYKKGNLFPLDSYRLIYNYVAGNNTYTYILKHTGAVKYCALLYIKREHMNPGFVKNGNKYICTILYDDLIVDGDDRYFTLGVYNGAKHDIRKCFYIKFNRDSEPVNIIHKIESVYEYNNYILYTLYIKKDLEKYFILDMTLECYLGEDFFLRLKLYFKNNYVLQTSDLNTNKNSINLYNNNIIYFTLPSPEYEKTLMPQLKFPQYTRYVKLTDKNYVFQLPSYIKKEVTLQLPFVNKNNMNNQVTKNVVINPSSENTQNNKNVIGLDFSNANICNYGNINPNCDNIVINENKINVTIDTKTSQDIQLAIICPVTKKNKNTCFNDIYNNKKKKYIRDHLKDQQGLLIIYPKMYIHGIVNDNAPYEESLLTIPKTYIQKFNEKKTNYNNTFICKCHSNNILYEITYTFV
UniProt A0A509AJZ7: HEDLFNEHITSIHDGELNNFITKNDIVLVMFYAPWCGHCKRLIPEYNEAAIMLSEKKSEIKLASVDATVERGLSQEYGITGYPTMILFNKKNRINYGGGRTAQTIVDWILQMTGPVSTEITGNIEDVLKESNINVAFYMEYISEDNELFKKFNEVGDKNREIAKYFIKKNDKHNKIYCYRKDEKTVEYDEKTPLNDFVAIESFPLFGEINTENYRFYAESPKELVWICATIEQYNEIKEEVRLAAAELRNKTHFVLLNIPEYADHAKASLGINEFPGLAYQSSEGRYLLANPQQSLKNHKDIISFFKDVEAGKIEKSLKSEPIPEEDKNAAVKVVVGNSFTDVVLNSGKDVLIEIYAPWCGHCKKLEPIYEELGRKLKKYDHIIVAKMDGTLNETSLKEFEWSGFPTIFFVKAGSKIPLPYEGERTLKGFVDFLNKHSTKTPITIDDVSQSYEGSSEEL
UniProt A0A509AQI1: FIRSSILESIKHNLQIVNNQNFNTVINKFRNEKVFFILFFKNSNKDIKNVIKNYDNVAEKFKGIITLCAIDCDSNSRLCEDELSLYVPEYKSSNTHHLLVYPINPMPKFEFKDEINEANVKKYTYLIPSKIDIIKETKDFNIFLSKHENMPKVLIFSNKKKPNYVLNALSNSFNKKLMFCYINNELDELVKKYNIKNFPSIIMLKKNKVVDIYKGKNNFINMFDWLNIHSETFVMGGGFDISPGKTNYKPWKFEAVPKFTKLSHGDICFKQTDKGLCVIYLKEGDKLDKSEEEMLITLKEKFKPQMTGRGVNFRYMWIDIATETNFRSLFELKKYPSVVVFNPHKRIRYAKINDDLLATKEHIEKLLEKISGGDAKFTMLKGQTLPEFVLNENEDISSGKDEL

Key:
[1] = target: LAP3 fused to GFP (LAP3::GFP) (Plasmodium berghei); experiment: affinity purification with mass spectrometry; GFP pull-down (anti-GFP microbeads, μMACS kit) from lysates (150 mM NaCl, 1% Triton X-100, 50 mM Tris-HCl pH 8.0) of ookinetes expressing LAP3::GFP after in vivo crosslinking with 1% paraformaldehyde; compared with non-crosslinked samples and LAP3-KO controls; LC-MS/MS with label free quantification; Table 1 lists the hits left after the filters (at least 2-fold enriched in crosslinked samples)
[2] = target: GFP-tagged TPM2 (TPM2/GFP) (Plasmodium berghei); experiment: affinity purification with mass spectrometry; GFP pull-down (anti-GFP microbeads, μMACS kit) from lysates of ookinetes expressing GFP-tagged TPM2 after in vivo crosslinking with 1% paraformaldehyde; compared with non-crosslinked samples; LC-MS/MS; Table 2 lists the hits left after the same filters

## Blood stage antigen 41-3 precursor, putative (PBANKA_0606200) (from UniProt A0A509AEX0)
[1]
  binding: binds

## Crystalloid-specific PH domain-containing protein, putative (PBANKA_0704900) (from UniProt A0A509AJL0)
[2]
  binding: binds
[1]
  binding: binds

## Hsp70/BiP (PBANKA_0818900) (from UniProt A0A509AJG0 22-651)
[1]
  binding: binds

## Hsp110 (PBANKA_1357200) (from UniProt A0A509APN5)
[1]
  binding: binds

## HspJ2 (PBANKA_0938300) (from UniProt A0A509AM83)
[1]
  binding: binds

## LCCL domain-containing protein (LAP1) (from UniProt A0A509ANB6)
[2]
  binding: binds weakly

## MOLO1 domain-containing protein, putative (TPM2) (from UniProt A0A509ALX4)
[1]
  binding: binds

## PH domain-containing protein PBANKA_0417200 (from UniProt A0A509AFS2)
[2]
  binding: binds
[1]
  binding: binds

## Secreted ookinete protein, putative (PSOP2) (from UniProt A0A509AML0)
[2]
  binding: binds
[1]
  binding: binds

## Secreted ookinete protein, putative (PSOP7) (from UniProt A0A509ASW0)
[2]
  binding: binds
[1]
  binding: binds

## Secreted ookinete protein, putative (PSOP12) (from UniProt A0A509ANV7)
[1]
  binding: binds

## Secreted ookinete protein, putative (PSOP13) (from UniProt A0A509AMC2)
[2]
  binding: binds
[1]
  binding: binds

## endoplasmin/Hsp90 (PBANKA_1437300) (from UniProt A0A509B0M9)
[1]
  binding: binds

## putative protein disulphide isomerase PBANKA_0702800 (from UniProt A0A509AJZ7)
[1]
  binding: binds

## putative protein disulphide isomerase PBANKA_0942500 (from UniProt A0A509AQI1)
[1]
  binding: binds

B1: Plasmepsin VI (protein, UniProt A0A509AI82 1-441)
chain: MTNFCIKSYLFLYLSFLLFFDIITIFHVSSIRISTVLKNDKKKKNFNTSLVEENKKYLFNEIKLNNRFKNDIKGYIQNINNFHSIIESKIPNSLLYVHEDLINFHNSQFIGDIEIGNPPQSFKVVFDTGSSNFAIPSTKCVKGGCTLHNKFDAKKSRTFMSNLKNKKESIYTYVQYGTGKSILEHGYDDVYMKGLKINKQCIGLIIEESMHPFSDLPFDGIVGLGFSDPDNSFQTKYSKSLIETIKEQNLLQQNIFSFYVPKELEKSGAITFGRANSKYAIEGEKIEWFPVISMYFWEINLLGILLPDKNFEICSNKKCRAAVDTGSSLITGPSSLMQPLIENINLEKDCSNISSLPIISFVLKNVEGKTVILDFTPDDYILQENSEEDNSSQCVIGLMSLDIPPPRGPIFIFGNVFIRKYYTIFDNDHKLVGVVKSNHNF
[1]
  binding: binds

B2: 6-cysteine protein (P47) (protein, UniProt Q9BMP8 21-409)
chain: YIIFPNGYVCDFKFNPLVNVLPSINTTGDIEEVGCTINNPSLSDYIALVCPKKNYNDYEHMEKVPSKCFSSNLYSPYKSEDSAHKLEELKIPEKYSISKDFSDFDLNIILIPSLYNIDKTIYCRCDNSKTKRELIKNDGENIKLQGKLGLVKIILNNQQNSPQNIYHITRSTQVGSLDNKVIELKEGEIVHLKYDGKTRTNFNCKEIINMKISIPLDYNLSMRMPTVFLKDINCKFHLIFSNVGGIANIVFKAKKTENIDGCDFTVPKGKGLYKNGFALSEINNDEEICTVHIGRGQNSNAAGLKCPYNLTPAHCFKHVLYEKKYKNGNNVFQTFLLDDVLRTVDIEYYYNAKLSAHIVGIPTIPEKSETVRCVCEHDGKKGIMELKIS
[2]
  binding: binds
[1]
  binding: binds

B3: PBANKA_0813300, conserved Plasmodium protein, unknown function (protein, UniProt A0A509AKT6 1-455)
chain: MIIDLFQSKKLIISIIILILRISLFSCAEHLFFNNNFNFFNFSENNHAKVNELNIDTKYLYQGLRNINIYLALSALNGITKEKINDISQWNGYKTRNNDETNISNVVVTEWKQLNKKSFFLKNNNISNNDNLIKGMPNPYFINSLTEDINNINLYFNIRNDIKYGEIIYKGTYIPHIYNNIFLIFLISYMYWFCIKILFNGYIKGKYVAKEYILKISTLFIFFVILKISLIFLPAILSCIVCLILTFYFYSISMSPCKDIFYLFESTRIKKEPIGWIIIVYAESILIGNVIYNFLCPPKIIIIFIRYIQNDFLVKIICLTIILFISFLIFFLMISNIFPAKKAQNFVFSFTSSYLIVSCFAYFWNIFLLRFLNNTNIFQIEPIMFFSYTPKFVFNRQNMFALFMIFAMSILSIIFPRIKKLKQNIFDMKENIYDSDIDIGKASKNRYNIILNYFT
[1]
  binding: binds

Results are given in words; binding and its absence hold for the method and conditions named. In cells and extracts the contact can be indirect. Here binding means that the protein was enriched with, or labelled near, the bait; the list need not be complete.
